Measurements from article PMC9655198.
No constants are given. Whether binding was seen depends on the method and setting. In cells and extracts the contact can be indirect. Some binding calls cover weakened binding; strength is not graded here.

Amino acid sequences for entries named in this document (tags omitted). A change or cut given only in a name is not applied to a line headed by its entry. Chains listed by the source or under a name are the forms on record and can include a tag or linker.
UniProt Q9HCL3: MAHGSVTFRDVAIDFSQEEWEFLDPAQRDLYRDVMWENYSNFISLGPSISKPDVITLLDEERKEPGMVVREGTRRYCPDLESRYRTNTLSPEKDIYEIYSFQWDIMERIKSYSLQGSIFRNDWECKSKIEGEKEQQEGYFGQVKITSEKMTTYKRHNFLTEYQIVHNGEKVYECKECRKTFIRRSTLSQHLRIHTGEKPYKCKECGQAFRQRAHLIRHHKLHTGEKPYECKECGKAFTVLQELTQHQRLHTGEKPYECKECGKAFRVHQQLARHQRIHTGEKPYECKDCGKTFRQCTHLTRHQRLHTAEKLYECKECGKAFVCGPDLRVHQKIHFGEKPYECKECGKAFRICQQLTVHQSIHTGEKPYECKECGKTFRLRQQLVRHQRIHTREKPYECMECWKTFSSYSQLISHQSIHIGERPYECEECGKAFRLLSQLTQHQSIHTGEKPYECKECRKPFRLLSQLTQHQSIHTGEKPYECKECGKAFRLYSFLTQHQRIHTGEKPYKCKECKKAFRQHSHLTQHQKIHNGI
GST-ZFP14 DV:AA mutant (Q9HCL3, form named): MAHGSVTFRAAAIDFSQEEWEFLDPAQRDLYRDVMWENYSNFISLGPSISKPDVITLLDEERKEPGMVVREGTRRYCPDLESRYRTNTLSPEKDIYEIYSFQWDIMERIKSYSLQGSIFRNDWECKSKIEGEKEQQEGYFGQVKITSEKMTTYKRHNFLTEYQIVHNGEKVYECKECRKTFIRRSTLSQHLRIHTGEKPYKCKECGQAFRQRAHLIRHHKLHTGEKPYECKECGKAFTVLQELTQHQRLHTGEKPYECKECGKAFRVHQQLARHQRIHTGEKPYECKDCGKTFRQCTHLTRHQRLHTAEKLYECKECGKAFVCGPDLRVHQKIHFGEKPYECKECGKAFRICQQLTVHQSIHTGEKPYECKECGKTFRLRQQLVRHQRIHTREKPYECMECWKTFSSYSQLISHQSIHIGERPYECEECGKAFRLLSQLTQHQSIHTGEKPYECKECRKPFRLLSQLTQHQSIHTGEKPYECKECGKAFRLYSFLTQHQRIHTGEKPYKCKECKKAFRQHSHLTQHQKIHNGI
UniProt Q00987: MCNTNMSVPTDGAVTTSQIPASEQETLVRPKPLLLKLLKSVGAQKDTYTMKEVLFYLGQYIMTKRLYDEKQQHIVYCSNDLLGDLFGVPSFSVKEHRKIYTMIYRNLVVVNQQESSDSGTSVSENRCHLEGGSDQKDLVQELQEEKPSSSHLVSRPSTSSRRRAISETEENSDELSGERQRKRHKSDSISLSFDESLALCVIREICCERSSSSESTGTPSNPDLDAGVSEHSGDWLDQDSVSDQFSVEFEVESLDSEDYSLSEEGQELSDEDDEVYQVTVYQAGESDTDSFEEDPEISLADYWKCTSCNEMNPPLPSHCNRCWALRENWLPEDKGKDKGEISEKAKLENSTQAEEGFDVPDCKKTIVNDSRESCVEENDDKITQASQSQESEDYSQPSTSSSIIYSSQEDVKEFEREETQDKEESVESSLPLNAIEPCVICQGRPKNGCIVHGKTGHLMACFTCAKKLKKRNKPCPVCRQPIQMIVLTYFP

Columns and labels:
[1] = molecular target: HA-ZFP14 (human ZFP14, HA-tagged) (human) (UniProt Q9HCL3); assay: co-IP; lysates of HCT116 cells overexpressing p53 and HA-ZFP14; IP with anti-HA or anti-p53, control IgG; IP-lysis buffer 20 mM Tris-HCl pH 7.5, 150 mM NaCl, 0.5% NP-40, 1 mM EDTA; benzonase-treated; overnight at 4 °C; Western blot
[2] = molecular target: HA-ZFP14 (human ZFP14, HA-tagged) (human) (UniProt Q9HCL3); assay: co-IP; lysates of HCT116 cells overexpressing only HA-ZFP14 (p53 and MDM2 endogenous); IP with anti-HA or anti-p53, control IgG; IP-lysis buffer 20 mM Tris-HCl pH 7.5, 150 mM NaCl, 0.5% NP-40, 1 mM EDTA; benzonase-treated; overnight at 4 °C; Western blot
[3] = molecular target: GST-tagged full-length ZFP14 (human) (UniProt Q9HCL3); assay: pull-down; 1 μg GST fusion protein bound to glutathione beads, incubated with HCT116-p53-KO cell lysate (20 mM Tris-HCl pH 7.5, 150 mM NaCl, 0.5% NP-40) for 4 h at 4 °C; Western blot; only the target purified
[4] = molecular target: GST-tagged full-length ZFP14 (human) (UniProt Q9HCL3); assay: pull-down; 1 μg GST fusion protein bound to glutathione beads, incubated with HCT116 cell lysate (20 mM Tris-HCl pH 7.5, 150 mM NaCl, 0.5% NP-40) for 4 h at 4 °C; Western blot; only the target purified
[5] = molecular target: GST-ZFP14 DV:AA mutant (human) (UniProt Q9HCL3); assay: as above

Measured: binding

endogenous MDM2 (from UniProt Q00987 1-491)
binds: [1] | [2] | [3] | [4] | [5]
